This is an account of results in patent US20220056147A1.

The chains behind the UniProt entries cited, without tags or fusion partners. Where a name states a change or a piece, a line headed by the entry shows the natural chain unless it says otherwise. A line that says so, or that is headed by a name, gives the form on record, which may keep a tag or linker.
recombinant human MSLN protein (Yiqiao Shenzhou) (Q13421, form named): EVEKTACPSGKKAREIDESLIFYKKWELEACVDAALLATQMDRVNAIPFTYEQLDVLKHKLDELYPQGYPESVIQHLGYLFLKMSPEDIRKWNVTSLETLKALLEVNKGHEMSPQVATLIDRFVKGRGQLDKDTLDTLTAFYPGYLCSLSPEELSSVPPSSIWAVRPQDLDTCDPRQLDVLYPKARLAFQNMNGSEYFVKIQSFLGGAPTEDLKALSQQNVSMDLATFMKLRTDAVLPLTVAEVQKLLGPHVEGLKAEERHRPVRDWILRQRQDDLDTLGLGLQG

These are yes or no findings as the source states them, for the method shown. Some entries that bind do so weakly or less than the wild type.

The target in this experiment is recombinant human MSLN protein (Yiqiao Shenzhou) (human) (UniProt Q13421). The experiment is described as follows: competition ELISA on plate-coated recombinant MSLN; competitor CA125-his at 200 ng/mL, anti-his detection. In general terms: An ELISA detects its analyte on a solid surface through an enzyme-linked reagent.

B1: RC88 antibody (antibody, human IgG1, kappa, V domains shown)
VH: EVQLVESGGGLVQPGGSLRLSCAASGFDFSRYWMSWVRQAPGKGLEWIGEINPDSSTIVYTPSLKDKFIISRDNAKNTLYLQMNSLRAEDTALYYCARRGSHYYGYRTGYFDVWGAGTTVTVSS
VL: DVVMTQSPAFLSVTPGEKVTMTCSASSSVSYMYWHQQKPDQAPKLLIYDTSNLASGVPVRFSGSGSGTDFTFTISRMEAEDAATYYCQQWSSYPPTFGGGTKVEIKR
Consider B1, for which the binding result is “binds”.
